In the supplement of paper PMC12067093, “Discovery and optimisation of a covalent ligand for TRIM25 and its application to targeted protein ubiquitination” (Chemical Science, 2025):
This is one part of the list.

The chains behind the UniProt entries cited, without tags or fusion partners. Where a name states a change or a piece, a line headed by the entry shows the natural chain unless it says otherwise.
UniProt O94855: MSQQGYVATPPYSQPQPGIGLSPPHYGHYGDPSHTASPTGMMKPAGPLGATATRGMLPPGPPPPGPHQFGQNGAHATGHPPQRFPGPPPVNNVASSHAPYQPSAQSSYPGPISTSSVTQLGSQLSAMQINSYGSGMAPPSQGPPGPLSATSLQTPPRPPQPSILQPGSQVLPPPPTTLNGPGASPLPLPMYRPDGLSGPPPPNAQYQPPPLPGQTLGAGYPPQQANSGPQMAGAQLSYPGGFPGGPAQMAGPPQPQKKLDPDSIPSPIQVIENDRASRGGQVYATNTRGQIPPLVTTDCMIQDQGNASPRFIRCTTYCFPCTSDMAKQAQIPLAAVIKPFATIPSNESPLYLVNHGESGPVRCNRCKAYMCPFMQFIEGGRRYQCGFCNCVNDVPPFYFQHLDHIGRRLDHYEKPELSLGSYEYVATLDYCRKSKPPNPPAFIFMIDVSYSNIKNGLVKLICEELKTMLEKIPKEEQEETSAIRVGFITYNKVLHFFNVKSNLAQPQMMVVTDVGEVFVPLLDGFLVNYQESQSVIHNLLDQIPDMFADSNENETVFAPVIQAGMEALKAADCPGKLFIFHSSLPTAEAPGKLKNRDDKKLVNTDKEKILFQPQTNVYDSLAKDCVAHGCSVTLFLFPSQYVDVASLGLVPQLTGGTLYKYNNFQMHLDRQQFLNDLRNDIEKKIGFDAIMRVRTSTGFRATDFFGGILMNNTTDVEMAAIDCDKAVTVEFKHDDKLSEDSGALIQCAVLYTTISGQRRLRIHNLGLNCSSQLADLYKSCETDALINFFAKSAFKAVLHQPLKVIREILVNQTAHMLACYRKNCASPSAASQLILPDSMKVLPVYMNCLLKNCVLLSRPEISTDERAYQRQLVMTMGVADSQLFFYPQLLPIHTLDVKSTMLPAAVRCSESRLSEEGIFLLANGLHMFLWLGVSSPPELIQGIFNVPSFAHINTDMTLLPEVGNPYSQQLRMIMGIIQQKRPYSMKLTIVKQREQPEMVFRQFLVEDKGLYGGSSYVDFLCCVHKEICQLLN
UniProt Q15436: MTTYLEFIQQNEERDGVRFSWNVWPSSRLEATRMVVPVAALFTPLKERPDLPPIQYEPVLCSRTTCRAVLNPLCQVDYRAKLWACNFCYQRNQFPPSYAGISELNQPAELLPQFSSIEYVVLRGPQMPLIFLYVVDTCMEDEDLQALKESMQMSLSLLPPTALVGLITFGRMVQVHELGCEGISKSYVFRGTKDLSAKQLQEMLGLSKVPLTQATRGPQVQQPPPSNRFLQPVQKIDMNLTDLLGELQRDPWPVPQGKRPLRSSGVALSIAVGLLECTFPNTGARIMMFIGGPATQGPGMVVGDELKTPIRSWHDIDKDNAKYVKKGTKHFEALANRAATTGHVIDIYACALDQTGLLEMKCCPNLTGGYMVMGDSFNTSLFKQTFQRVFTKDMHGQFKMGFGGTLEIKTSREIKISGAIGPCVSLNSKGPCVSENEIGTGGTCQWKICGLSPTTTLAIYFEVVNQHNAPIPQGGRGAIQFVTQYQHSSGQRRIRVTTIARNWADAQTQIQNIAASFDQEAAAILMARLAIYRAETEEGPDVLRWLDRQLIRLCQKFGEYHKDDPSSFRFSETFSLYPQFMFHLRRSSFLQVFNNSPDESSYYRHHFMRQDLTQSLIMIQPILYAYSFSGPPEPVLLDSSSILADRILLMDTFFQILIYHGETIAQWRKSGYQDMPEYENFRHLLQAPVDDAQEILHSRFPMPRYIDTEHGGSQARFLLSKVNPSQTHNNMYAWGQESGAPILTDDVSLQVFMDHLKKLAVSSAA
UniProt P31040: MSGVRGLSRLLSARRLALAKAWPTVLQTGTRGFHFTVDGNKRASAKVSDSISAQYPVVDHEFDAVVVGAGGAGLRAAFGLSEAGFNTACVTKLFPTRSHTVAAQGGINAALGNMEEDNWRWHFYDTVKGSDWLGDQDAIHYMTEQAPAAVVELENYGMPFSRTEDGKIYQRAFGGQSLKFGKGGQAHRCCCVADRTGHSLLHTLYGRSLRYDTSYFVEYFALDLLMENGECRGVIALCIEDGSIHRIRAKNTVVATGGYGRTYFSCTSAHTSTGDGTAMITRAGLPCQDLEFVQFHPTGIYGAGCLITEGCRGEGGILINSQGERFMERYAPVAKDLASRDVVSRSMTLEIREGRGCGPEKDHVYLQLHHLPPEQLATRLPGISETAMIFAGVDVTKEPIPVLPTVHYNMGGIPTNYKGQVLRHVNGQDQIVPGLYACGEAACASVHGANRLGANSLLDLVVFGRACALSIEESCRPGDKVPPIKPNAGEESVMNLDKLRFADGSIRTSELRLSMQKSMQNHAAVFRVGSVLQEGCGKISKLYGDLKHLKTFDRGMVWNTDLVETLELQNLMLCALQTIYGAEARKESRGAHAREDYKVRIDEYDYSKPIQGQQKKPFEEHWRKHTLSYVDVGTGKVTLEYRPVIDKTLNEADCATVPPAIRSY
UniProt P53992: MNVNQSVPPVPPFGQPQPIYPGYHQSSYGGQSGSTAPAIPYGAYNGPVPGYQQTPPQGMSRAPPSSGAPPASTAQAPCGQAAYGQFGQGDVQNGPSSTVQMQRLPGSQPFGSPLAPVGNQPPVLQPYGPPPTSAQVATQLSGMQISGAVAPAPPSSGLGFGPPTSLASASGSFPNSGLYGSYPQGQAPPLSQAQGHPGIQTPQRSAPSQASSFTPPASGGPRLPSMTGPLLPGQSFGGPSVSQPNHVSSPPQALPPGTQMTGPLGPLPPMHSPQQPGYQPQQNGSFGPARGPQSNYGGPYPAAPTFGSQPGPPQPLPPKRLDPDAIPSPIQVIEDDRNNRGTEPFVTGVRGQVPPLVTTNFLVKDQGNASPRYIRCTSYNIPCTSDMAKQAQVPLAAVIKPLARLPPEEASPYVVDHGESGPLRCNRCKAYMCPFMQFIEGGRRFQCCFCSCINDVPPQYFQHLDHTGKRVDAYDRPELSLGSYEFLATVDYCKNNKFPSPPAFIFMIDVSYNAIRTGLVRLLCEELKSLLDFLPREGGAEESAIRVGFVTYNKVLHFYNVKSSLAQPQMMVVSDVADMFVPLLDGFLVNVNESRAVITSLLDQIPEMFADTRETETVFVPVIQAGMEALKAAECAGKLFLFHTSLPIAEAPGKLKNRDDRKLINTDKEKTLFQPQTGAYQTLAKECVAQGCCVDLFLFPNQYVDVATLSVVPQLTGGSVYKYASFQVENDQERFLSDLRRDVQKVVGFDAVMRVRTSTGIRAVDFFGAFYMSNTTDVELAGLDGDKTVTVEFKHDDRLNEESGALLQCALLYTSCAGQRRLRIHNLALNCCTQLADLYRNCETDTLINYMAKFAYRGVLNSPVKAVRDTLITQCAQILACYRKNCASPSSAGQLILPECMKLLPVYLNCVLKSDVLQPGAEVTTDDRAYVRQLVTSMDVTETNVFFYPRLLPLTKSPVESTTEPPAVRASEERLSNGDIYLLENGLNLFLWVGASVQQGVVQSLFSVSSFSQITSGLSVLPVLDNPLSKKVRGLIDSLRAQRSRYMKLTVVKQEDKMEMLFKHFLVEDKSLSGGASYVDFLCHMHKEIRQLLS
UniProt Q9UGP8: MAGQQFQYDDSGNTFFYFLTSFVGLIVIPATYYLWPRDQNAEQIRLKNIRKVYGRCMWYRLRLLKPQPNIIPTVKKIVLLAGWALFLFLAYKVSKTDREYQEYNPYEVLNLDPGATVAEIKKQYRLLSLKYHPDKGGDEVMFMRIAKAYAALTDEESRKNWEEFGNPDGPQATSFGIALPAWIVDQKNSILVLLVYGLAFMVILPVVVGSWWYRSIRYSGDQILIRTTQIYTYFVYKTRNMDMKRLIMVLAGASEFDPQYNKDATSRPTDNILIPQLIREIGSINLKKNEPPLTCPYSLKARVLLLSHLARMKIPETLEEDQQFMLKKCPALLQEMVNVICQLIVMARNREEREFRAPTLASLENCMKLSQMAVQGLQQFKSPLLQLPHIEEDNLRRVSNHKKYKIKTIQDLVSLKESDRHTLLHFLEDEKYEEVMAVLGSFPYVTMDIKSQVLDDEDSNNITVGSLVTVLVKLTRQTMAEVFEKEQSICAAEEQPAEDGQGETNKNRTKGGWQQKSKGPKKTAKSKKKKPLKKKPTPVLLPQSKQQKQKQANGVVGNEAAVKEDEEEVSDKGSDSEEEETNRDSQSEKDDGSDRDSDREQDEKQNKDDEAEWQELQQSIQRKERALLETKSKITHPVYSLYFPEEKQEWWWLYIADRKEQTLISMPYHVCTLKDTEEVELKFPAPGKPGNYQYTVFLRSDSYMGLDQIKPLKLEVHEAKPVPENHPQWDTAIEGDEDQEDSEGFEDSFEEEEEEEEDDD
UniProt O94979: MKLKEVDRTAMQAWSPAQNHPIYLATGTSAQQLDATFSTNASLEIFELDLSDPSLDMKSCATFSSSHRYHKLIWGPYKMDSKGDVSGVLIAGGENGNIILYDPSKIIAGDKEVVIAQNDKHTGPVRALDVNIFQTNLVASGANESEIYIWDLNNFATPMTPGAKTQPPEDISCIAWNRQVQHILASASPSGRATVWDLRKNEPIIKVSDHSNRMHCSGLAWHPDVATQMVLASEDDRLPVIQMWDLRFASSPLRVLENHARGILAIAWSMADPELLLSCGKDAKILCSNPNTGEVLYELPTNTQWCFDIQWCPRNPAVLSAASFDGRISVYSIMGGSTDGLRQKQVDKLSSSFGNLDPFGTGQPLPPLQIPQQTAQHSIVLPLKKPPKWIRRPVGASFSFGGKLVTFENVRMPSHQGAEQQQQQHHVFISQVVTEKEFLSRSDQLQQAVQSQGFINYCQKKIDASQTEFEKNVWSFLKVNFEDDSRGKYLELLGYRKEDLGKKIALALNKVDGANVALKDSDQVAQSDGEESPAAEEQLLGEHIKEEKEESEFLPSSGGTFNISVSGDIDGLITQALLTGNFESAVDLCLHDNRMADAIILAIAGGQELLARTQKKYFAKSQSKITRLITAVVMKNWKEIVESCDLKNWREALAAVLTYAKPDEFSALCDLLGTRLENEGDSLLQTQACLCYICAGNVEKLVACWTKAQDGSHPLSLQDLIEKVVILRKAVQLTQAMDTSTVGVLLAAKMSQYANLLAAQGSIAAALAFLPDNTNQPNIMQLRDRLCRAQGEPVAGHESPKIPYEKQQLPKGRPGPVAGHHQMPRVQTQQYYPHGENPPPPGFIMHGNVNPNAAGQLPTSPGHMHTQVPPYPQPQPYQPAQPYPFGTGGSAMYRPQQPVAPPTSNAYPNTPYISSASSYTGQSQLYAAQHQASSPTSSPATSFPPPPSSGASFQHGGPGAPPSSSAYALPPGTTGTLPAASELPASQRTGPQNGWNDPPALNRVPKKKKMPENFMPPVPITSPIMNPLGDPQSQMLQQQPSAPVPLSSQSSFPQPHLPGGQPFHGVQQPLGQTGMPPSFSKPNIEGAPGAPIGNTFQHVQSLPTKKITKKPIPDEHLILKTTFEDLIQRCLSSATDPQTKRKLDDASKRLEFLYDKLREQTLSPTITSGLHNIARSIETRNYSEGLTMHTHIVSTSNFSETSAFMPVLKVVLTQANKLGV
UniProt Q15020: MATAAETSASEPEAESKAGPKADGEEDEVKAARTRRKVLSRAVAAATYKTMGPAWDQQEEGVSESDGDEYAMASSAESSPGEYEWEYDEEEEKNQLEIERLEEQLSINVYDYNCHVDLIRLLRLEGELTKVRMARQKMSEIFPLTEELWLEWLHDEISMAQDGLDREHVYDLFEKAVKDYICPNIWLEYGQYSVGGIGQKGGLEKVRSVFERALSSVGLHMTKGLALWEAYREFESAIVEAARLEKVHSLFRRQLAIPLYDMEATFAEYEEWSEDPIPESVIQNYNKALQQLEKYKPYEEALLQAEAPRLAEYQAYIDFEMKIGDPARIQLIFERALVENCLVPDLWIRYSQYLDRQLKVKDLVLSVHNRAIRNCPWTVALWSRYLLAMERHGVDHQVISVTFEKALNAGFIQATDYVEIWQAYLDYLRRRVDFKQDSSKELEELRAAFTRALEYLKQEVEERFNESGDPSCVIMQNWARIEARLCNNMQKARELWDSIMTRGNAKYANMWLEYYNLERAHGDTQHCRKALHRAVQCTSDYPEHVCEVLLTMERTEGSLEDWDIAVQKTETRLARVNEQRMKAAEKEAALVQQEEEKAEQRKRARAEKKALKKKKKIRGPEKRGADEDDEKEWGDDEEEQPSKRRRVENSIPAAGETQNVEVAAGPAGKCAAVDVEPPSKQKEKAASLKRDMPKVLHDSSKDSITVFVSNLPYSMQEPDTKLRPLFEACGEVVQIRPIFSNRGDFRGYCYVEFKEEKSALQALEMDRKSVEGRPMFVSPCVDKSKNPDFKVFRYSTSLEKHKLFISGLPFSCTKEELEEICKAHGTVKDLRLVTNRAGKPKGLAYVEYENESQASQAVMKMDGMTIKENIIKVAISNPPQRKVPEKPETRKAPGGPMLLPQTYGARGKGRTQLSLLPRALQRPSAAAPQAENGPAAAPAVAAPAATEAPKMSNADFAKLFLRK

Compound: Cc1cc(ccc1-c1ccccc1)C(=O)N1CCCN(CC1)C(=O)CCl [compound 10]
Experiment: probe-labelled cysteine peptide fold change vs DMSO (competition) (log2 fold change); higher = less target engagement (more negative = stronger competition)
Details: THP-1, incubation time: 4 h
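Note: competitive profiling in live THP-1 cells: cysteine peptides tagged with an iodoacetamide desthiobiotin (IA-DTB) probe, intensity after compound treatment relative to DMSO-treated cells.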

Target | probe-labelled cysteine peptide fold change (10 µM) | probe-labelled cysteine peptide fold change (50 µM)
SCLT1_Q96NL6_506_LQNVLESERENCGLVSEQR (UniProt Q96NL6) | -0.0949 | -0.21
SEC24D_O94855_848_VLPVYMNCLLK (UniProt O94855) | 0.139 | 0.0936
SEPT11_Q9NVA2_41_STSQGFCFNILCVGETGIGK (UniProt Q9NVA2) | 0.0312 | 0.112
SEC23A_Q15436_88_LWACNFCYQR (UniProt Q15436) | -0.0355 | -0.152
SDF2_Q99470_80_SATVCER (UniProt Q99470) | -0.188 | 0.221
SDHA_P31040_654_TLNEADCATVPPAIR (UniProt P31040) | -0.34 | 0.157
SCP2_P22307_495_ADCTITMADSDFLALMTGK (UniProt P22307) | 0.201 | -0.0348
SEC24C_P53992_809+816_HDDRLNEESGALLQCALLYTSCAGQR (UniProt P53992) | 0.15 | -0.152
SEC24D_O94855_431_LDHYEKPELSLGSYEYVATLDYCR (UniProt O94855) | 0.288 | 0.0811
SEC23B_Q15437_425_IAGAIGPCVSLNVK (UniProt Q15437) | 0.0893 | 0.0455
SEC16A_O15027_1293_YWCDAEYDAYR (UniProt O15027) | -0.357 | -0.54
SEC23A_Q15436_350_AATTGHVIDIYACALDQTGLLEMK (UniProt Q15436) | -0.0364 | 0.0464
SCYL3_Q8IZE3_71_FLSCTVEADGIHLVTER (UniProt Q8IZE3) | 0.00139 | -0.0177
SEC24C_P53992_452_FQCCFCSCINDVPPQYFQHLDHTGKR (UniProt P53992) | -0.0315 | -0.0322
SEC63_Q9UGP8_671_EQTLISMPYHVCTLK (UniProt Q9UGP8) | 0.235 | 0.336
SEC22A_Q96IW7_33_VRDGLPLSASTDYEQSTGMQECR (UniProt Q96IW7) | -0.0846 | -0.304
SEC63_Q9UGP8_295_NEPPLTCPYSLK (UniProt Q9UGP8) | -0.343 | -1.34
SEC13_P55735_153_KINNAHTIGCNAVSWAPAVVPGSLIDHPSGQK (UniProt P55735) | 0.25 | 0.151
SEMA4D_Q92854_370_PRPGACIDSEAR (UniProt Q92854) | -0.224 | -1.22

Target | probe-labelled cysteine peptide fold change (10 µM) | probe-labelled cysteine peptide fold change (50 µM)
SBNO1_A3KN83_425_QLLHWCGDDFDGVIVFDECHK (UniProt A3KN83) | 0.101 | 0.00827
SEC31A_O94979_60_SCATFSSSHR (UniProt O94979) | 0.205 | 0.141
SAR1B_Q9Y6B6_178_ELNARPLEVFMCSVLK (UniProt Q9Y6B6) | 0.0365 | -0.126
SBNO2_Q9Y2G9_908_ALHCVLTTILSQTENK (UniProt Q9Y2G9) | 0.0907 | -0.477
SEC24D_O94855_1022_GLYGGSSYVDFLCCVHK (UniProt O94855) | 0.0448 | -0.751
SEPT11_Q9NVA2_46_STSQGFCFNILCVGETGIGK (UniProt Q9NVA2) | 0.212 | -0.163
SAR1A_Q9NR31_178_ELNARPMEVFMCSVLK (UniProt Q9NR31) | -0.0933 | -0.364
SATB1_Q01826_78+91_GTMLPVFCVVEHYENAIEYDCKEEHAEFVLVR (UniProt Q01826) | -0.0346 | -0.254
SART3_Q15020_812_LFISGLPFSCTK (UniProt Q15020) | 0.0425 | 0.284
SCYL1_Q96KG9_309_SLDAFPEDFCR (UniProt Q96KG9) | -0.0616 | -0.0717
SART3_Q15020_670_CAAVDVEPPSK (UniProt Q15020) | -0.0578 | -0.132
SBNO1_A3KN83_1277_VVSDDALMHWLDQYNSSADTCTHAYWR (UniProt A3KN83) | 0.0541 | -0.0901
SDSL_Q96GA7_296_LQAEGCLPPSLTSVVVIVCGGNNINSR (UniProt Q96GA7) | -0.27 | -0.105
SAP30_O75446_184_AQLVEIVGCHFR (UniProt O75446) | 0.0105 | -0.181
SEC24D_O94855_388+390_YQCGFCNCVNDVPPFYFQHLDHIGR (UniProt O94855) | -0.163 | -0.303
SCAF11_Q99590_506_KLENTGIEANVLCLESEISENILEK (UniProt Q99590) | -0.478 | 0.011
SCML2_Q9UQR0_324_EKPLPVICSTSAASLK (UniProt Q9UQR0) | -0.148 | -0.344
SDHA_P31040_89_AAFGLSEAGFNTACVTK (UniProt P31040) | 0.0671 | 0.223

2 entries from above, comma-delimited.
Target,probe-labelled cysteine peptide fold change (10 µM),probe-labelled cysteine peptide fold change (50 µM)
SEC31A_O94979_60_SCATFSSSHR (UniProt O94979),0.205,0.141
SEPT11_Q9NVA2_46_STSQGFCFNILCVGETGIGK (UniProt Q9NVA2),0.212,-0.163
